For 15 targets, NP40-soluble protein abundance results are on record in the supplement of paper PMC6411743.

By UniProt entry, the sequences of proteins in these tests, tags left out. Where a name states a change or a piece, a line headed by the entry shows the natural chain unless it says otherwise.
UniProt P50897: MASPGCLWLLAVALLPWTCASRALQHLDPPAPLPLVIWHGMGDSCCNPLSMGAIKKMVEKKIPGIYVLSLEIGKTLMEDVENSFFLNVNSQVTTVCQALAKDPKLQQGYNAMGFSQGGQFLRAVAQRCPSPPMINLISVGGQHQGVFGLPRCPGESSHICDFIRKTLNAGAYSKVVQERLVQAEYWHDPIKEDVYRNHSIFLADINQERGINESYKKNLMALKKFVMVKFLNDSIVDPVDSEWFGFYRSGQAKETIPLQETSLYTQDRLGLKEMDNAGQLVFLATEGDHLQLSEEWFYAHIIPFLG
UniProt P63167, whole entry: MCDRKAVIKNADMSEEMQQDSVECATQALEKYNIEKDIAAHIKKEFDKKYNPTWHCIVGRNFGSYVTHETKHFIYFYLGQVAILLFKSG
UniProt P60468, whole entry: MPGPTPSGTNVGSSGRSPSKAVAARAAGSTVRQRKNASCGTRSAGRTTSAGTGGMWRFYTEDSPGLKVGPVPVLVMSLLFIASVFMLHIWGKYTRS
UniProt P62195, whole entry: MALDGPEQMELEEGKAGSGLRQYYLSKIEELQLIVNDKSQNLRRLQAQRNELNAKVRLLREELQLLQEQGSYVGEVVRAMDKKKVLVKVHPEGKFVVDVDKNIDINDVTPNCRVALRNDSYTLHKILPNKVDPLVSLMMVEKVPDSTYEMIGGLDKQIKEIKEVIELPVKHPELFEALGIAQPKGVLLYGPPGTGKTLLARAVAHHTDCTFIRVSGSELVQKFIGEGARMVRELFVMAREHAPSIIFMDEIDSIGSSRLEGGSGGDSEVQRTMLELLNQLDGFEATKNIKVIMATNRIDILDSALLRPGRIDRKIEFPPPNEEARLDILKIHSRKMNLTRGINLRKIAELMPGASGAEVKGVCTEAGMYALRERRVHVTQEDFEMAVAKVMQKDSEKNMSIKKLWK
UniProt P51571: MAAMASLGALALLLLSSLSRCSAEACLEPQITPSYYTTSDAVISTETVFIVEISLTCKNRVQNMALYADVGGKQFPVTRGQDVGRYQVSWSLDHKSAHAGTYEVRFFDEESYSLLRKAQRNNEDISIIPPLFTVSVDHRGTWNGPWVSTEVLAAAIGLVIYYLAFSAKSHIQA
UniProt P84101: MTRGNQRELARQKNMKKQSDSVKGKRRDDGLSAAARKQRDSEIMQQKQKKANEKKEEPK
UniProt P84085: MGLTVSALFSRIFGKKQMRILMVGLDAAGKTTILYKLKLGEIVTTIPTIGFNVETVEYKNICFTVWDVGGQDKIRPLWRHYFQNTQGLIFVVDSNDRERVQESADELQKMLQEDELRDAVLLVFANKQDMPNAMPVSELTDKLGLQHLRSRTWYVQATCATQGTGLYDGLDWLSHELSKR
UniProt P53985: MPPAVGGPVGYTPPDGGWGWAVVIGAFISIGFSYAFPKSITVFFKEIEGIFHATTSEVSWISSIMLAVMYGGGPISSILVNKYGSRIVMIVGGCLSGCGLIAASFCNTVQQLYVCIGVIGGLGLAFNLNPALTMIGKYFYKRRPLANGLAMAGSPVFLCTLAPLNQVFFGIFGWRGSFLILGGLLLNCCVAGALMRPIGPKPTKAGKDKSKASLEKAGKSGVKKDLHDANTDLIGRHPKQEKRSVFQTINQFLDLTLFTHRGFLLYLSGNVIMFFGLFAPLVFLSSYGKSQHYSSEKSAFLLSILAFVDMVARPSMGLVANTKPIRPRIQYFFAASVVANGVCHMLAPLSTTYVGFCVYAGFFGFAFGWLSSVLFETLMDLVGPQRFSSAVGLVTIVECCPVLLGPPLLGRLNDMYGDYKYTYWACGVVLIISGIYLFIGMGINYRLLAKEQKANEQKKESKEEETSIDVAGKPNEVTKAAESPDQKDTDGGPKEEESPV
UniProt P62136, whole entry: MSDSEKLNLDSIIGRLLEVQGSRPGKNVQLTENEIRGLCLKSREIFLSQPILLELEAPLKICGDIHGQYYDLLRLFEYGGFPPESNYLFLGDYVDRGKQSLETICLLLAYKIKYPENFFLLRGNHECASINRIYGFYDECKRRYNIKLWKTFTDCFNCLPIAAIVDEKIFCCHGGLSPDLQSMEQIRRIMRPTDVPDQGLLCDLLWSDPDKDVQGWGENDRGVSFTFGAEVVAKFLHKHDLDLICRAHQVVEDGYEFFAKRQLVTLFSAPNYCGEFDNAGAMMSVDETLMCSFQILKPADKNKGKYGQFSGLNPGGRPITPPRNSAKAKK
UniProt P61024, whole entry: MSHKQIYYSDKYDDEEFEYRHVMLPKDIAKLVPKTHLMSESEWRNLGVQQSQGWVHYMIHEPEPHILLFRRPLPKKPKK
UniProt P56937: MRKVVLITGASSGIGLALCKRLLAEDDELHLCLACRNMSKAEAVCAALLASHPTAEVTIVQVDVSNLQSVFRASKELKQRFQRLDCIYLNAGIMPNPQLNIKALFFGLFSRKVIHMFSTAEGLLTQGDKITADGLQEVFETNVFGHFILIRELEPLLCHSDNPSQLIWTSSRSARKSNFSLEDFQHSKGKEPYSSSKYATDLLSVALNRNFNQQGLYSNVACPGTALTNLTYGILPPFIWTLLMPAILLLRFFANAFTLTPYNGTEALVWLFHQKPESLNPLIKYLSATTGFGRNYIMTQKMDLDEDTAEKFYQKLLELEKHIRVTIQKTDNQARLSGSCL
UniProt P51570: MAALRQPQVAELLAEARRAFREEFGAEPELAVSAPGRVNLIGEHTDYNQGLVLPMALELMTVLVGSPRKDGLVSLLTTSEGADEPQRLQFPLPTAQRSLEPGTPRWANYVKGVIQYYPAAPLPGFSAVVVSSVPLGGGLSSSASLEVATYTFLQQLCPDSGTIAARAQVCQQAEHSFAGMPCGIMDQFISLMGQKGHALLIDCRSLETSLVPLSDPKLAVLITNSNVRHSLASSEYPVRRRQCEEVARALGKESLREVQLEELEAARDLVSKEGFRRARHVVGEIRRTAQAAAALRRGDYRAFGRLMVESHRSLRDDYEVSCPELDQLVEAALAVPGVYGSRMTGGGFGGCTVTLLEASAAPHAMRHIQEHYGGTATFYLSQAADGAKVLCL
UniProt P62253: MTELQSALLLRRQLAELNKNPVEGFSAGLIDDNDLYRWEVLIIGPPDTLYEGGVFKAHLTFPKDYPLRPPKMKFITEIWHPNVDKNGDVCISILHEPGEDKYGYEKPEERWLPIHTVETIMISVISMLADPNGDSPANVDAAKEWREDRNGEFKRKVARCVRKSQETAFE
UniProt P53611: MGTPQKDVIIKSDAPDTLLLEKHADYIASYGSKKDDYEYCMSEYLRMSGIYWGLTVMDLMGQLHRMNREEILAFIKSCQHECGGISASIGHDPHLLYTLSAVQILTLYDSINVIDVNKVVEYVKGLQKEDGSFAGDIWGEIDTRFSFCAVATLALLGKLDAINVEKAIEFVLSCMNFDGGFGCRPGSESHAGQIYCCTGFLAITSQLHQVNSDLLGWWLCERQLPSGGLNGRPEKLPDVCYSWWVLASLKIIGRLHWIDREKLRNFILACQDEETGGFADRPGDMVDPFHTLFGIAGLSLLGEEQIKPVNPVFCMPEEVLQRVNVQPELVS

Compound in the test: Nc1nc2c(ncn2[C@@H]2O[C@H](COP(=O)(O)OP(=O)(O)OP(=O)(O)O)[C@@H](O)[C@H]2O)c(=O)[nH]1 [guanosine triphosphate]
Kind of test: NP40-soluble protein abundance relative to vehicle (solubility fold change) (ratio); higher = more soluble protein in presence of GTP. In short, it runs like this: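 Each value is a fold change relative to the detergent-processed vehicle, calculated per replicate from vsn-normalised intensities. Jurkat crude lysate received eight concentrations (0.1 to 10 mM) for 10 min at room temperature and 3 min at 37 °C, then was solubilised in 0.8% NP40 with benzonase (60 min, 4 °C). The ultracentrifuged supernatant was TMT-labelled and run by LC-MS/MS in three independent experiments.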

± gives the standard deviation of the averaged measurements. The list shows a part of the results.

As for PPT1 (UniProt P50897), the NP40-soluble protein abundance was 0.888 ± 0.06 (concentration: 0.1mM); 0.859 ± 0.12 (concentration: 0.5mM); 0.968 ± 0.083 (concentration: 1mM); 0.872 ± 0.12 (concentration: 2mM); 0.873 ± 0.068 (concentration: 4mM); 0.887 ± 0.11 (concentration: 6mM). Besides, the NP40-soluble protein abundance (concentration: 8mM) came to 0.876 ± 0.059 and the NP40-soluble protein abundance (concentration: 10mM) turned out to be 0.861 ± 0.099.

On to UniProt P63167, for which the NP40-soluble protein abundance is, setting by setting: (concentration: 0.1mM) 0.862 ± 0.085; (concentration: 0.5mM) 0.908 ± 0.074; (concentration: 1mM) 1.08 ± 0.12; (concentration: 2mM) 1.02 ± 0.046; (concentration: 4mM) 0.989 ± 0.063; (concentration: 6mM) 1.09 ± 0.079. The NP40-soluble protein abundance amounted to 1.03 ± 0.13 (concentration: 8mM) and 1.09 ± 0.11 (concentration: 10mM).

Turning to UniProt P98155 and related entries, the NP40-soluble protein abundance by setting is: (concentration: 0.1mM) 1.06 ± 0.032; (concentration: 0.5mM) 1.05 ± 0.052; (concentration: 1mM) 1.12 ± 0.047; (concentration: 2mM) 1.04 ± 0.08; (concentration: 4mM) 0.995 ± 0.071; (concentration: 6mM) 1.01 ± 0.071. Also, the NP40-soluble protein abundance (concentration: 8mM) was 1.07 ± 0.089 and the NP40-soluble protein abundance (concentration: 10mM) was 1.05 ± 0.031.

On to SEC61B (UniProt P60468), for which the NP40-soluble protein abundance by setting is: (concentration: 0.1mM) 0.9 ± 0.16; (concentration: 0.5mM) 0.839 ± 0.099; (concentration: 1mM) 1.02 ± 0.16; (concentration: 2mM) 1.04 ± 0.12; (concentration: 4mM) 0.994 ± 0.14; (concentration: 6mM) 1.01 ± 0.077. The NP40-soluble protein abundance runs as follows: (concentration: 8mM) 0.887 ± 0.16; (concentration: 10mM) 1.09 ± 0.22.

In the case of UniProt P62195, the NP40-soluble protein abundance reads like this: (concentration: 0.1mM) 1.03 ± 0.069; (concentration: 0.5mM) 1.08 ± 0.12; (concentration: 1mM) 1.04 ± 0.14; (concentration: 2mM) 1.07 ± 0.17; (concentration: 4mM) 1.06 ± 0.15; (concentration: 6mM) 1.08 ± 0.19. For the same target, the NP40-soluble protein abundance runs as follows: (concentration: 8mM) 1.06 ± 0.16; (concentration: 10mM) 0.977 ± 0.15.

For the target SSR4 (UniProt P51571), the NP40-soluble protein abundance reads like this: (concentration: 0.1mM) 0.98 ± 0.087; (concentration: 0.5mM) 0.994 ± 0.056; (concentration: 1mM) 0.95 ± 0.064; (concentration: 2mM) 0.911 ± 0.1; (concentration: 4mM) 0.888 ± 0.075; (concentration: 6mM) 0.929 ± 0.091. The NP40-soluble protein abundance (concentration: 8mM) came to 0.936 ± 0.046 and the NP40-soluble protein abundance (concentration: 10mM) is 0.901 ± 0.075.

On to UniProt P84101 and related entries, for which the NP40-soluble protein abundance is 1.22 ± 0.17 (concentration: 0.1mM); 1.1 ± 0.18 (concentration: 0.5mM); 1.08 ± 0.32 (concentration: 1mM); 0.974 ± 0.31 (concentration: 2mM); 0.978 ± 0.37 (concentration: 4mM); 0.857 ± 0.3 (concentration: 6mM). In addition, the NP40-soluble protein abundance is, setting by setting: (concentration: 8mM) 0.947 ± 0.4; (concentration: 10mM) 0.898 ± 0.32.

Take UniProt P84085: the NP40-soluble protein abundance (concentration: 0.1mM) stood at 1.03 ± 0.012; the NP40-soluble protein abundance (concentration: 0.5mM) turned out to be 1.01 ± 0.018; the NP40-soluble protein abundance (concentration: 1mM) worked out at 0.962 ± 0.046; the NP40-soluble protein abundance (concentration: 2mM) worked out at 0.925 ± 0.053; the NP40-soluble protein abundance (concentration: 4mM) amounted to 0.874 ± 0.06; the NP40-soluble protein abundance (concentration: 6mM) turned out to be 0.922 ± 0.05. Moreover, the NP40-soluble protein abundance was determined as 0.863 ± 0.093 (concentration: 8mM) and 0.83 ± 0.12 (concentration: 10mM).

SLC16A1 (UniProt P53985): the NP40-soluble protein abundance (concentration: 0.1mM) came out at 0.971 ± 0.051; the NP40-soluble protein abundance (concentration: 0.5mM) was found to be 1.04 ± 0.042; the NP40-soluble protein abundance (concentration: 1mM) came out at 1.04 ± 0.066; the NP40-soluble protein abundance (concentration: 2mM) came to 1.04 ± 0.057; the NP40-soluble protein abundance (concentration: 4mM) worked out at 1.03 ± 0.064; the NP40-soluble protein abundance (concentration: 6mM) amounted to 1.05 ± 0.069. Further, the NP40-soluble protein abundance is, setting by setting: (concentration: 8mM) 1.069 ± 0.0032; (concentration: 10mM) 1.07 ± 0.078.

In the case of PPP1CA (UniProt P62136), the NP40-soluble protein abundance (concentration: 0.1mM) worked out at 0.894 ± 0.12; the NP40-soluble protein abundance (concentration: 0.5mM) turned out to be 0.92 ± 0.12; the NP40-soluble protein abundance (concentration: 1mM) was found to be 0.861 ± 0.081; the NP40-soluble protein abundance (concentration: 2mM) worked out at 0.834 ± 0.072; the NP40-soluble protein abundance (concentration: 4mM) worked out at 0.855 ± 0.083; the NP40-soluble protein abundance (concentration: 6mM) worked out at 0.853 ± 0.056. The NP40-soluble protein abundance by setting is: (concentration: 8mM) 0.837 ± 0.098; (concentration: 10mM) 0.828 ± 0.092.

Turning to UniProt P61024 and related entries, the NP40-soluble protein abundance runs as follows: (concentration: 0.1mM) 0.968 ± 0.0044; (concentration: 0.5mM) 0.939 ± 0.055; (concentration: 1mM) 1.04 ± 0.042; (concentration: 2mM) 0.99 ± 0.065; (concentration: 4mM) 0.923 ± 0.043; (concentration: 6mM) 0.97 ± 0.11. For the same target, the NP40-soluble protein abundance (concentration: 8mM) turned out to be 1.03 ± 0.032 and the NP40-soluble protein abundance (concentration: 10mM) worked out at 0.96 ± 0.07.

Regarding UniProt P56937 and related entries, the NP40-soluble protein abundance turned out to be 1.04 ± 0.053 (concentration: 0.1mM); 0.9775 ± 0.0047 (concentration: 0.5mM); 0.952 ± 0.038 (concentration: 1mM); 0.872 ± 0.042 (concentration: 2mM); 0.873 ± 0.032 (concentration: 4mM); 0.912 ± 0.054 (concentration: 6mM). In addition, the NP40-soluble protein abundance (concentration: 8mM) worked out at 0.828 ± 0.031 and the NP40-soluble protein abundance (concentration: 10mM) stood at 0.801 ± 0.077.

With GALK1 (UniProt P51570), the NP40-soluble protein abundance reads like this: (concentration: 0.1mM) 1.007 ± 0.0096; (concentration: 0.5mM) 1.02 ± 0.02; (concentration: 1mM) 0.993 ± 0.019; (concentration: 2mM) 0.957 ± 0.044; (concentration: 4mM) 0.961 ± 0.021; (concentration: 6mM) 0.977 ± 0.031. Also, the NP40-soluble protein abundance runs as follows: (concentration: 8mM) 0.942 ± 0.053; (concentration: 10mM) 0.922 ± 0.042.

Consider UniProt P62253, for which the NP40-soluble protein abundance reads like this: (concentration: 0.1mM) 0.994 ± 0.052; (concentration: 0.5mM) 0.956 ± 0.05; (concentration: 1mM) 0.955 ± 0.058; (concentration: 2mM) 0.886 ± 0.086; (concentration: 4mM) 0.876 ± 0.043; (concentration: 6mM) 0.843 ± 0.063. Moreover, the NP40-soluble protein abundance worked out at 0.899 ± 0.071 (concentration: 8mM) and 0.83 ± 0.075 (concentration: 10mM).

As to RABGGTB (UniProt P53611), the NP40-soluble protein abundance (concentration: 0.1mM) turned out to be 1.02 ± 0.058; the NP40-soluble protein abundance (concentration: 0.5mM) worked out at 0.994 ± 0.035; the NP40-soluble protein abundance (concentration: 1mM) amounted to 0.911 ± 0.018; the NP40-soluble protein abundance (concentration: 2mM) was found to be 0.865 ± 0.023; the NP40-soluble protein abundance (concentration: 4mM) turned out to be 0.838 ± 0.039; the NP40-soluble protein abundance (concentration: 6mM) was 0.89 ± 0.019. Besides, the NP40-soluble protein abundance reads like this: (concentration: 8mM) 0.868 ± 0.06; (concentration: 10mM) 0.822 ± 0.078.
